Experimental data published in the supplement of paper PMC4604168 (melanoma cell lines).
Some of the results follow. Many values rest on one well or one pass, so single values are uncertain.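 Cells were imaged in 1,536-well plates, and nuclei stained with an antibody against cleaved PARP were counted against all DNA-stained nuclei to give the apoptosis fraction. Screening doses were chosen to leave most cells alive, and resting and induced cleaved-PARP levels differ strongly between cell lines.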

Tested on: LOXIMVI
Assay: cleaved PARP positive nuclei fraction relative to DMSO control; melanoma cells; higher = more apoptosis
Conditions: library dose: low library concentration; 72 h

Going from `Nc1ccn([C@@H]2O[C@H](CO)[C@@H](O)C2(F)F)c(=O)n1` [gemcitabine] + O=S(=O)(c1ccccc1)N(CC(F)(F)F)c1ccc(C(O)(C(F)(F)F)C(F)(F)F)cc1 [T0901317] (first compound 0.0004 µM, partner dose 1.4 µM) to `Nc1ncn([C@H]2C[C@H](O)[C@@H](CO)O2)c(=O)n1` [decitabine] + O=C(Nc1ccccc1)c1cc([N+](=O)[O-])ccc1Cl [GW9662] (first compound 0.1 µM, partner dose 2 µM), the “cleaved PARP positive nuclei fraction” value falls from 156% to 41.7%.

Going from `Nc1nc(F)nc2c1ncn2[C@@H]1O[C@H](CO)[C@@H](O)[C@@H]1O` [fludarabine] + Cn1cc(/C=C2\C(=O)Nc3cccnc32)c2ccccc21 [GW441756] (first compound 0.2 µM, partner dose 0.4 µM) to `Nc1ncn([C@H]2C[C@H](O)[C@@H](CO)O2)c(=O)n1` [decitabine] + Oc1cc(-c2nc(-c3ccccc3)[nH]c2-c2ccncc2)ccc1Cl [L779450] (first compound 0.1 µM, partner dose 0.2 µM), the “cleaved PARP positive nuclei fraction” value falls from 132% to 40.2%.

Going from `Nc1ccn([C@@H]2O[C@H](CO)[C@@H](O)C2(F)F)c(=O)n1` [gemcitabine] + CCN(CC)CCCCNc1ncc2cc(-c3cc(OC)cc(OC)c3)c(NC(=O)NC(C)(C)C)nc2n1 [PD173074] (first compound 0.0004 µM, partner dose 0.1 µM) to `Nc1ncn([C@H]2C[C@H](O)[C@@H](CO)O2)c(=O)n1` [decitabine] + O=C1NC(=O)/C(=C/c2ccc(-c3ccc(F)cc3O)o2)S1 [AS252424] (first compound 0.1 µM, partner dose 1 µM), the “cleaved PARP positive nuclei fraction” value falls from 135% to 66.5%.

First: CCCS(=O)(=O)Nc1ccc(F)c(C(=O)c2c[nH]c3ncc(Cl)cc23)c1F + COc1ccc(COc2ccc(Cc3cnc(N)nc3N)cc2OC)cc1 [GW2580] (first compound 0.08 µM, partner dose 1 µM)
Second: CNC(=O)c1cc(Oc2ccc(NC(=O)Nc3ccc(Cl)c(C(F)(F)F)c3)cc2)ccn1 [sorafenib] + Cc1cc([N+](=O)[O-])ccc1NS(=O)(=O)c1cc(Cl)ccc1Cl [FH535] (first compound 0.4 µM, partner dose 1 µM)
The “cleaved PARP positive nuclei fraction” value of the first is lower: 61.5% for the first, 416% for the second.

Going from `Nc1ccn([C@@H]2O[C@H](CO)[C@@H](O)C2(F)F)c(=O)n1` [gemcitabine] + CCc1ccc(CCOc2ccc(CC3SC(=O)NC3=O)cc2)nc1 [pioglitazone] (first compound 0.0004 µM, partner dose 2 µM) to `Nc1ncn([C@H]2C[C@H](O)[C@@H](CO)O2)c(=O)n1` [decitabine] + COc1ccc(-c2ccc3c(N4CCOCC4)nc(N4C[C@@H](C)O[C@@H](C)C4)nc3n2)cc1CO [KU0063794] (first compound 0.1 µM, partner dose 0.02 µM), the “cleaved PARP positive nuclei fraction” value rises from 126% to 241%.

Going from `O=C(O)c1ccc2c(c1)nc(Nc1cccc(Cl)c1)c1ccncc12` + N#Cc1c(O)c2c(-c3ccc(-c4ccccc4O)cc3)csc2[nH]c1=O [A769662] (first compound 0.4 µM, partner dose 2 µM) to `Cn1c(=O)n(-c2ccc(C(C)(C)C#N)cc2)c2c3cc(-c4cnc5ccccc5c4)ccc3ncc21` + COc1cc2ncnc(Nc3ccc(Oc4ccccc4)cc3)c2cc1OC [SrcI1] (first compound 0.004 µM, partner dose 2 µM), the “cleaved PARP positive nuclei fraction” value rises from 64.4% to 67.1%.

Compared with `Nc1ccn([C@@H]2O[C@H](CO)[C@@H](O)C2(F)F)c(=O)n1` [gemcitabine] + COc1ccc(COc2ccc(Cc3cnc(N)nc3N)cc2OC)cc1 [GW2580] (first compound 0.0004 µM, partner dose 1 µM), `Nc1nc(F)nc2c1ncn2[C@@H]1O[C@H](CO)[C@@H](O)[C@@H]1O` [fludarabine] + COc1cc(N2CCC(N3CCN(C)CC3)CC2)ccc1Nc1ncc(Cl)c(Nc2ccccc2S(=O)(=O)C(C)C)n1 [NVP-TAE684] (first compound 0.2 µM, partner dose 0.08 µM) is lower in “cleaved PARP positive nuclei fraction” value: 67% for the first, 56.7% for the second.

Going from `CCCS(=O)(=O)Nc1ccc(F)c(C(=O)c2c[nH]c3ncc(Cl)cc23)c1F` + Cn1cc(/C=C2\C(=O)Nc3cccnc32)c2ccccc21 [GW441756] (first compound 0.08 µM, partner dose 0.4 µM) to `O=C(O)c1ccc2c(c1)nc(Nc1cccc(Cl)c1)c1ccncc12` + Oc1nc(-c2ccc(C(F)(F)F)cc2)nc2c1CSCC2 [XAV939] (first compound 0.4 µM, partner dose 2 µM), the “cleaved PARP positive nuclei fraction” value rises from 42.5% to 110%.

Going from `Cc1cc(Nc2cc(N3CCN(C)CC3)nc(/C=C/c3ccccc3)n2)n[nH]1` + O=c1cc(-c2cccc3c2Sc2ccccc2S3)oc(N2CCOCC2)c1 [KU55933] (first compound 0.04 µM, partner dose 1 µM) to `CN1CCN(c2ccc3nc(-c4c(N)c5c(F)cccc5[nH]c4=O)[nH]c3c2)CC1` [Dovitinib] + Oc1cc(-c2nc(-c3ccccc3)[nH]c2-c2ccncc2)ccc1Cl [L779450] (first compound 0.1 µM, partner dose 0.2 µM), the “cleaved PARP positive nuclei fraction” value rises from 86.5% to 173%.

First: Cc1cc(Nc2cc(N3CCN(C)CC3)nc(/C=C/c3ccccc3)n2)n[nH]1 + O=S(=O)(c1ccccc1)N(CC(F)(F)F)c1ccc(C(O)(C(F)(F)F)C(F)(F)F)cc1 [T0901317] (first compound 0.04 µM, partner dose 1.4 µM)
Second: CN1CCN(c2ccc3nc(-c4c(N)c5c(F)cccc5[nH]c4=O)[nH]c3c2)CC1 [Dovitinib] + COc1ccc(COc2ccc(Cc3cnc(N)nc3N)cc2OC)cc1 [GW2580] (first compound 0.1 µM, partner dose 1 µM)
The “cleaved PARP positive nuclei fraction” value of the first is lower: 84.6% for the first, 108% for the second.

First: CCCS(=O)(=O)Nc1ccc(F)c(C(=O)c2c[nH]c3ncc(Cl)cc23)c1F + O=C1NC(=O)/C(=C/c2ccc(-c3ccc(F)cc3O)o2)S1 [AS252424] (first compound 0.08 µM, partner dose 1 µM)
Second: CC(C)C[C@H](NC(=O)[C@H](Cc1ccccc1)NC(=O)c1cnccn1)B(O)O [Bortezomib] + COC(=O)c1sccc1S(=O)(=O)Nc1ccc(Nc2ccccc2)cc1OC [GSK0660] (first compound 0.001 µM, partner dose 1 µM)
The “cleaved PARP positive nuclei fraction” value of the first is lower: 85.8% for the first, 102% for the second.

Going from `Cn1c(=O)n(-c2ccc(C(C)(C)C#N)cc2)c2c3cc(-c4cnc5ccccc5c4)ccc3ncc21` + CC(C)CCN1c2nc(Nc3cc(F)c(O)c(F)c3)ncc2N(C)C(=O)C1C [BID1870] (first compound 0.004 µM, partner dose 0.2 µM) to `C=C(c1ccc(C(=O)O)cc1)c1cc2c(cc1C)C(C)(C)CCC2(C)C` [Bexarotene] + CCCCCCCCCCCC1=C(O)C(=O)C=C(O)C1=O [Embelin] (first compound 2 µM, partner dose 1.2 µM), the “cleaved PARP positive nuclei fraction” value falls from 91.3% to 58.8%.

Going from `CCCS(=O)(=O)Nc1ccc(F)c(C(=O)c2c[nH]c3ncc(Cl)cc23)c1F` + Oc1cc(-c2nc(-c3ccccc3)[nH]c2-c2ccncc2)ccc1Cl [L779450] (first compound 0.08 µM, partner dose 0.2 µM) to `C=C(c1ccc(C(=O)O)cc1)c1cc2c(cc1C)C(C)(C)CCC2(C)C` [Bexarotene] + COC(=O)c1sccc1S(=O)(=O)Nc1ccc(Nc2ccccc2)cc1OC [GSK0660] (first compound 2 µM, partner dose 1 µM), the “cleaved PARP positive nuclei fraction” value falls from 146% to 71.7%.

Compared with `Nc1nc(F)nc2c1ncn2[C@@H]1O[C@H](CO)[C@@H](O)[C@@H]1O` [fludarabine] + COc1ccc2c(c1)CCC1C2CCC2(C)C(NCCCCCCN3C(=O)C=CC3=O)CCC12 [U73122] (first compound 0.2 µM, partner dose 0.4 µM), `O=C(O)[C@@H]1[O][Sb](=[O])([O][Sb]2(=[O])[O][C@H]([C@H](O)CO)[C@H](O)[C@H](C(=O)O)[O]2)[O][C@H]([C@H](O)CO)[C@@H]1O` (some centres not stated) [stibogluconate] + O=C(O)C(=O)Nc1sc2c(c1C(=O)O)CCNC2 [TCS401] (first compound 2 µM, partner dose 1.66667 µM) is lower in “cleaved PARP positive nuclei fraction” value: 151% for the first, 75.9% for the second.

First: C=C(c1ccc(C(=O)O)cc1)c1cc2c(cc1C)C(C)(C)CCC2(C)C [Bexarotene] + Cc1cc([N+](=O)[O-])ccc1NS(=O)(=O)c1cc(Cl)ccc1Cl [FH535] (first compound 2 µM, partner dose 1 µM)
Second: Cn1c(=O)n(-c2ccc(C(C)(C)C#N)cc2)c2c3cc(-c4cnc5ccccc5c4)ccc3ncc21 + Cc1cc([N+](=O)[O-])ccc1NS(=O)(=O)c1cc(Cl)ccc1Cl [FH535] (first compound 0.004 µM, partner dose 1 µM)
The “cleaved PARP positive nuclei fraction” value of the first is higher: 99.7% for the first, 83.1% for the second.

Going from `C=C(c1ccc(C(=O)O)cc1)c1cc2c(cc1C)C(C)(C)CCC2(C)C` [Bexarotene] + COc1ccc(COc2ccc(Cc3cnc(N)nc3N)cc2OC)cc1 [GW2580] (first compound 2 µM, partner dose 1 µM) to `Nc1nc(F)nc2c1ncn2[C@@H]1O[C@H](CO)[C@@H](O)[C@@H]1O` [fludarabine] + O=C(Nc1ccccc1)c1cc([N+](=O)[O-])ccc1Cl [GW9662] (first compound 0.2 µM, partner dose 2 µM), the “cleaved PARP positive nuclei fraction” value rises from 81.9% to 181%.
